Library screen at single concentrations

The chains behind the UniProt entries cited, without tags or fusion partners. Residues count along the entry.
UniProt A4I591, 1-473: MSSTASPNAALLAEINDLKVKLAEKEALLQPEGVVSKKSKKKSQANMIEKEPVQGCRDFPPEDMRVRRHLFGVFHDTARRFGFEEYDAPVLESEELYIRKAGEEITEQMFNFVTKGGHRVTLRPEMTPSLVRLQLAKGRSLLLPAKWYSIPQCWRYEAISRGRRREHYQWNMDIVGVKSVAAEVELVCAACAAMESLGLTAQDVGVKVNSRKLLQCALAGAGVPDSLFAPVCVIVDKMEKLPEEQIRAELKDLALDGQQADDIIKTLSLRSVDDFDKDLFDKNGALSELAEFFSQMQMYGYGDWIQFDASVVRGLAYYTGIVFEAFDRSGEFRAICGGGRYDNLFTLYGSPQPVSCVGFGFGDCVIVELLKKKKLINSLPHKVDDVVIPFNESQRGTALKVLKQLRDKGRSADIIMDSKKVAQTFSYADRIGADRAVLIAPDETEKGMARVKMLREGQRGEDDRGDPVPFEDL

Data taken from ChEMBL document CHEMBL3988442, “University of Dundee, Small-Polar-MMV Screening Library” (2021).

Each number is a percent effect as filed. The controls that fix the scale are not given in the record; negative values are as filed. This is an unselected part of the compounds tested.

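Histidine-tRNA ligase, Leishmania infantum (UniProt A4I591). Enzyme assay of histidyl-tRNA synthetase; the read-out is not stated. Compounds at 30 µM. The record gives no direction; compounds that gave an IC50 in retests scored well above the rest, so higher reads as stronger inhibition. The assay is labelled LdHisRS but filed under L. infantum. Size under these conditions: about 69,000 compounds, about 410 of them at 50% or above in at least one test.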

CCN(Cc1ccncc1)c1cc(C2CCNCC2)nc(C)n1 read 22.45%.
Cc1cc(C)n(CC(C)CNC(=O)NCc2ccco2)n1 (centres unmarked) read 3.665%.
Cc1c(C(=O)OCC2CC(=O)N(c3ccccc3)C2)cnn1C(C)C (centres unmarked) read -3.896%.
Cc1nc(CC2CCCN(Cc3nc4ccccc4c(=O)[nH]3)C2)no1 (centres unmarked) read 19.78%.
Cc1nn(C)c(C)c1C1CCCN1CCOc1cccc(C#N)c1 (centres unmarked) read 14.88%.
COCCN(c1cc(C)nc2nc(C(F)(F)F)nn12)C1CCCC1 read -37.14%.
N#Cc1cc(NC(=O)c2ccncc2)ccc1N1CCC(O)CC1 read 15.07%.
Cc1cccc(Cn2nc(C3CCNCC3)n(-c3ccccc3)c2=O)c1 read 13.7%.
CN(Cc1ccc(F)cc1)Cc1nc(-c2cnccn2)no1 read 3.226%.
c1cnn(Cc2cnc3n2CCN(CC2CCCCC2)C3)c1 read 23.53%.
O=C1CN(C(=O)CSC2CCCc3ccccc32)CCN1 (centres unmarked) read 18.18%.
Cc1nc(CN2CCC23CCN(Cc2ccco2)CC3)cs1 read 42.34%.
Cc1cc(F)ccc1NC(=O)NCC(C)N1CCOCC1 (centres unmarked) read 5.882%.
O=C(CS(=O)(=O)Cc1ccc(F)cc1)NC1CCCCNC1=O (centres unmarked) read 17.31%.
CN(CCn1cncc1-c1cnc(N2CCOCC2)nc1)C1CCCC1 read 6.993%.
COC(=O)N1CC(C)=C(C)CN1C(=O)Nc1cccc(Cl)c1 read 18.56%.
O=C(NCc1cccs1)c1[nH]nc2c1CS(=O)(=O)CC2 read 10.71%.
O=C(CN1C(=O)c2ccccc2CS1(=O)=O)c1ccc(Cl)cc1 read -31.51%.
Cc1cccc(-c2nc(N)nc3c2CN(C(=O)c2ccncn2)C3C)c1 (centres unmarked) read 16.48%.
CCn1cc(CN2CCCC(c3[nH]ncc3-c3ccc(F)cc3)C2)cn1 (centres unmarked) read 18.07%.
CC(C)[C@H]1COC(=O)N1Cc1noc(-c2ccccc2)n1 read 18%.
O=C(c1ccccn1)N1Cc2nccn2CC(CN2CCOCC2)C1 (centres unmarked) read 19.61%.
Cn1cc(N2CCCC(Oc3ccc(F)cc3Cl)C2=O)cn1 (centres unmarked) read 14.29%.
CCC(C)NC(=O)c1nn(C)c(NC(=O)c2ccccc2OC)c1F (centres unmarked) read 16.48%.
COc1ccc(CN(CC2CCCO2)c2nc3c(s2)c(C)nn3C)cc1 (centres unmarked) read 14.58%.
Cn1cccc1C(=O)NCc1cn2c(n1)CN(S(=O)(=O)C1CC1)CC2 read 19%.
Cc1noc(CN2C[C@H]3CC[C@@H]2CN(C2Cc4ccccc4C2)C3)n1 read 20.35%.
Cc1cc(C)nc(NCCC(=O)NCCn2ccc3ccccc32)n1 read 28.95%.
CN1CCN([C@@H]2CCN(CC3=Cc4cc(Cl)ccc4OC3)C[C@H]2O)CC1 read 5%.
OC(CN1CCN(CC(F)F)CC1)c1ccc(Br)cc1 (centres unmarked) read 18.75%.
COc1cc(N2CCC3(CC2)C(c2ccncc2)CC(=O)N3C)ncn1 (centres unmarked) read 20%.
CCC(C)(C)n1nnnc1C(c1cccs1)N1CCCCC1 (centres unmarked) read 8.054%.
O=C(CCn1cnnc1)N1CCCC(c2ncc[nH]2)C1 (centres unmarked) read 13.46%.
CC(C)C(C(=O)N1CCCN(Cc2nccn2C)CC1)N1CCCC1 (centres unmarked) read 12.31%.
COc1c(C2CCCN2C(=O)c2nccnc2N)c(C)nn1C (centres unmarked) read 3.509%.
CC(=O)N1CCC(c2ccnc(Nc3ccc(C)cn3)n2)C1 (centres unmarked) read 11.46%.
Cc1ccc(CN2CCCn3c(nc(Cn4cncn4)cc3=O)C2)s1 read 17.65%.
CNC(=O)c1coc(-c2csc(C)n2)c1 read 10%.
CS(=O)(=O)c1ccc(-c2cc(O)cc(CCC3CCCCN3)c2)cc1 (centres unmarked) read 5.376%.
CN(Cc1cccnc1)[C@@H]1CN(CC2CC2)[C@@H]2CCCO[C@H]12 read 9.434%.
CC(C)NC(=O)C1CCN(c2snc3ccccc23)CC1 read 9.565%.
Cc1cc(N2CCC(N(C)C(=O)c3ccc(C#N)cc3)CC2)nc(C)n1 read 1.205%.
Cc1noc(C2CCCN(C(=O)c3ccc(N(C)C)nc3)C2)n1 (centres unmarked) read 12.84%.
CC(C)(C)c1ccn(C2(C(=O)O)CCN(c3ncccc3C#N)CC2)n1 read 23.46%.
O=C(Nc1ccnc(OC2CCOC2)c1)C1CCC1 (centres unmarked) read 2.885%.
Cc1ccoc1C(=O)NC1CCN(Cc2cccc3c2OCCO3)CC1 read 18.92%.
Cc1cc(C(=O)O)cc(S(=O)(=O)Nc2ccc3c(c2)OCCCO3)c1C read 12.04%.
O=C(CC1CC1)N1CCC2(COCc3cnc(N4CCOCC4)nc32)C1 (centres unmarked) read 18%.
Cc1nccc(C2CCCN(C(=O)c3cncnc3)C2)n1 (centres unmarked) read 9.929%.
Cc1[nH]ncc1C(=O)N1CCCN(Cc2nccn2C(C)C)CC1 read 12.04%.
O=C(CSC1CCCC1)N1CCN(C(=O)C2CC2c2cccs2)CC1 (centres unmarked) read 25.81%.
CCCc1cnc(C)nc1N1CCC2(CCCO2)CC1 read 3.125%.
CCn1nc(C)c2nc(C(C)C)nc(NCC(=O)N3CCOCC3)c21 read 13.79%.
Cc1cc(C)c(CNC(=O)N(C)Cc2sccc2C)c(=O)[nH]1 read 16.67%.
O=C1CCc2cc(-c3csc(CCN4CCOC4=O)n3)ccc2N1 read 26.79%.

6 of the entries, repeated:

{"compound": "Cc1cc(C(=O)O)cc(S(=O)(=O)Nc2ccc3c(c2)OCCCO3)c1C", "Percent Effect": 12.04}
{"compound": "CC(C)C(C(=O)N1CCCN(Cc2nccn2C)CC1)N1CCCC1", "stereo": "centres unmarked", "Percent Effect": 12.31}
{"compound": "Cc1cccc(-c2nc(N)nc3c2CN(C(=O)c2ccncn2)C3C)c1", "stereo": "centres unmarked", "Percent Effect": 16.48}
{"compound": "CCn1cc(CN2CCCC(c3[nH]ncc3-c3ccc(F)cc3)C2)cn1", "stereo": "centres unmarked", "Percent Effect": 18.07}
{"compound": "CC(C)[C@H]1COC(=O)N1Cc1noc(-c2ccccc2)n1", "Percent Effect": 18}
{"compound": "CCN(Cc1ccncc1)c1cc(C2CCNCC2)nc(C)n1", "Percent Effect": 22.45}